These results are taken from publication PMC10546721.

Protein sequences, listed by entry. Tags and fused reporters are not part of them. Residues count along the entry.
UniProt O00206, residues 24-839: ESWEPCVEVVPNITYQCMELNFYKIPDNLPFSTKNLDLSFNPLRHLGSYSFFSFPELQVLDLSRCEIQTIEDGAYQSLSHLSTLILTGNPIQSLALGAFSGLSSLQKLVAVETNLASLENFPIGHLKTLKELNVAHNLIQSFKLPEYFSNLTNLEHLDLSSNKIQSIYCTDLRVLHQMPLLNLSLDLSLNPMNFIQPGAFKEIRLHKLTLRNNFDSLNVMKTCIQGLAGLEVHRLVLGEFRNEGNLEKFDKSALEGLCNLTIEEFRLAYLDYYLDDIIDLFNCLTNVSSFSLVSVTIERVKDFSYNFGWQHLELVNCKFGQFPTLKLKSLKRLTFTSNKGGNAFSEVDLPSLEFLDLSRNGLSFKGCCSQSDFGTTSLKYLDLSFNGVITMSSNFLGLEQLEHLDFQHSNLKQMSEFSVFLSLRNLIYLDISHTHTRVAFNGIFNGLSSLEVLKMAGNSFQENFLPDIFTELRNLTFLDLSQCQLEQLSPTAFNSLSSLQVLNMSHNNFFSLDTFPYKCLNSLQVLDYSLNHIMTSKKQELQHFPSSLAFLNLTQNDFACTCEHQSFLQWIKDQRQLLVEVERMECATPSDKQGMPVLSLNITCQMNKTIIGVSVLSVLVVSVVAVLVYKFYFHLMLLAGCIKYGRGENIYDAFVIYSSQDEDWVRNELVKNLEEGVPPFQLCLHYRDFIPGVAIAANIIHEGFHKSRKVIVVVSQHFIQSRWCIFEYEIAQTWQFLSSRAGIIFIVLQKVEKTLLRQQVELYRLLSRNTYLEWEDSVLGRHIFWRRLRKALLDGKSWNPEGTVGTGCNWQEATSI

This assay concerns the target T1, lipopolysaccharide binding protein (LBP) fused with 3X-FLAG (human) (UniProt P18428).
T1 sequence: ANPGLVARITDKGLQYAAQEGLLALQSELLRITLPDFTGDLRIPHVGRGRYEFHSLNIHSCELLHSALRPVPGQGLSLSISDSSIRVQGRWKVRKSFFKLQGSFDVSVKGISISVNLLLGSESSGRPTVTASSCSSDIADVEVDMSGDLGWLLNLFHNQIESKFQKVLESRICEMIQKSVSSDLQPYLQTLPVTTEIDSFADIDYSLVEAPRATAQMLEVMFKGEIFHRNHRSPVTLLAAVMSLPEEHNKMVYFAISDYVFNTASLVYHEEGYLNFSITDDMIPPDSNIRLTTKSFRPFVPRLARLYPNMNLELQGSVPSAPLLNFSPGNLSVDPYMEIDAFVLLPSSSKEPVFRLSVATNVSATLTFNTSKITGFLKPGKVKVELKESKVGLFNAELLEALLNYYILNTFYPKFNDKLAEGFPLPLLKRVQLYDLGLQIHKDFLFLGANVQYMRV
The assay can be described thus: affinity purification with mass spectrometry; anti-FLAG M2 Affinity Gel immunoprecipitation of LBP-3X-FLAG in PMA-treated THP-1 cells; eluate on Bolt 10% Bis-Tris gel, silver stain, mass spectrometry.

No constants are given. Whether binding was seen depends on the method and setting. Binding seen in cells or lysates may run through a third protein. A yes stands for co-enrichment or nearness to the bait. Other partners may have been found. Where a sequence is shown, tags or fusion partners need not be part of it.

As to “TLR4 (endogenous in PMA-treated THP-1 cells) (from UniProt O00206 24-839) (receptor)”, the binding result is recorded as “binds”.
